# Measured values from PubChem BioAssay AID504444 (National Center for Advancing Translational Sciences (NCATS), 2011).
# Screen size: about 360,000 compounds; about 7,500 (2.1%) were called active. This list was built around the results that the source calls inconclusive (neither active nor inactive); the mix of calls is not that of the screen. Calls come from the whole dose curve; as a rule, active = well fitted inhibition curve with a large enough effect; inconclusive = small, poorly fitted or top-dose-only effect, or effect the other way; inactive = flat fitted curve, though single readings scatter. Potencies beside an inconclusive call are fits to weak or partial responses and may not hold up.
# Assay: Nrf2 qHTS screen for inhibitors; note: nearly all actives have a fitted effect of over 60% in size
# Settings: A549 ARE-Fluc reporter, luciferase luminescence, 18-24 h; activity change, negative = inhibition: at 46 µM (top of the series)
# Summary of the method: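 In this cell-based qHTS, ARE-driven firefly luciferase in A549 cells reports Nrf2 activity; the luminescent signal after BugLite lysis is the measured value, with a prior CellTiter-Fluor read for cell health.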
# % is set by controls: 0 for no effect and ±100 for the full control effect; potency is the fitted concentration of half-maximal effect.
SMILES,Potency,"activity change, negative = inhibition"
O=C(COc1ccccc1Br)NCc1ccco1,"inconclusive: 25.9 µM [activator, single point]",–
O=C(Nc1ccc(NS(=O)(=O)c2ccccc2)cc1)c1ccc(Cl)cc1,–,inactive: 2.51%
CC(=O)NC(CC(=O)N(C)C1CCCCC1)c1ccccc1 (centres undefined),"inconclusive: 7.31 µM [activator, partial curve, poor fit]",–
O=C(Nc1ccc(S(=O)(=O)Nc2cnc3ccccc3n2)cc1)c1ccc(Cl)cc1Cl,"inconclusive: 29.1 µM [falling, single point]",–
Cc1cccc(NS(=O)(=O)c2ccc(C(=O)NCC(C)(C)N3CCOCC3)cc2)c1C,"inconclusive: 11.6 µM [falling, partial curve]",–
COc1cc(OC)c(C2=NOC(C(=O)Nc3cc(C)nn3-c3ccccc3)C2)cc1Cl (centres undefined),"inconclusive: 25.9 µM [falling, partial curve, poor fit]",–
COC(=O)c1ccc(COC(=O)CNC(=O)c2ccc(OC)cc2)cc1,"inconclusive: 23.1 µM [activator, single point]",–
Cc1ccc(SCC(=O)Nc2ccc(-c3nc4ccccc4[nH]3)cc2)cc1,"inconclusive: 0.461 µM [activator, full curve]",–
COc1ccc(NC(=O)c2cccn2-c2nnc(N3CCCCC3)s2)cc1,"inconclusive: 8.2 µM [activator, partial curve, poor fit]",–
O=C(Nn1cnc2ccccc2c1=O)c1ccccc1Cl,"inconclusive: 11.6 µM [activator, partial curve, poor fit]",–
CCOc1ccc(/C=C(\C#N)C(=O)Nc2cccnc2)cc1,–,inactive: 3.6%
Cc1cc(C)cc(OCC(=O)Nc2ccc(-c3nc4ccccc4o3)cc2)c1,"inconclusive: 16.4 µM [falling, partial curve]",–
COc1ccc(/C=C/C(=O)Nc2cccnc2)cc1OC,"inconclusive: 23.1 µM [activator, single point]",–
Cc1ccccc1Cn1cc(NC(=O)c2nc3ncccn3n2)cn1,"inconclusive: 2.91 µM [activator, single point]",–
CCCn1c(SCC(=O)c2cc(C)n(-c3cc(C)on3)c2C)n[nH]c1=O,"inconclusive: 29.1 µM [falling, single point]",–
CCC(=O)N1CCc2cc(S(=O)(=O)NC(C(=O)Nc3ccc(C(C)=O)cc3)C(C)C)ccc21 (centres undefined),–,inactive: 13.1%
CC[C@@H](CC1CCCCC1)C(=O)N(Cc1ccccc1)c1ccccc1,–,inactive: -11.3%
CCOC(=O)Cn1c(=O)c(-c2cc(Br)ccc2N)nc2ccccc21,–,inactive: 0.841%
CCN1CCN(c2ccc(Cl)cc2NC(=O)c2ccc(-n3nc(C)cc3C)cc2)CC1,"inconclusive: 20.6 µM [falling, single point]",–
CCSC1=C(C#N)C(c2ccccc2Cl)C(C(=O)c2cccs2)C(O)(C(F)(F)F)N1 (centres undefined),"inconclusive: 29.1 µM [falling, single point]",–
Clc1ccc(N2CCN(c3ncnc4c3nc3n4CCCC3)CC2)cc1,active: 4.61 µM,–
CS(=O)(=O)c1cccc(C(=O)Nc2cccc(-c3nc4ccccc4[nH]3)c2)c1,"inconclusive: 18.4 µM [activator, single point]",–
CCCC(=O)Nc1nc2ccc(NC(=O)c3ccccc3F)cc2s1,"inconclusive: 1.84 µM [falling, full curve, poor fit]",–

# Rewritten bar-delimited: 3 of the compounds above
SMILES | Potency | activity change, negative = inhibition
CCN1CCN(c2ccc(Cl)cc2NC(=O)c2ccc(-n3nc(C)cc3C)cc2)CC1 | inconclusive: 20.6 µM [falling, single point] | –
CCSC1=C(C#N)C(c2ccccc2Cl)C(C(=O)c2cccs2)C(O)(C(F)(F)F)N1 (centres undefined) | inconclusive: 29.1 µM [falling, single point] | –
Clc1ccc(N2CCN(c3ncnc4c3nc3n4CCCC3)CC2)cc1 | active: 4.61 µM | –

# Further records follow:

SMILES,Potency,"activity change, negative = inhibition"
CC(C)(C)N=C1NN=C(c2ccc(S(=O)(=O)N3CCCCC3)cc2)CS1,"inconclusive: 29.1 µM [falling, single point]",–
O=C(CSCc1ccccc1)N1CCN(c2ccc(F)cc2)CC1,–,inactive: 0.133%
CCCNS(=O)(=O)c1ccc(OCC(=O)Nc2ccccc2F)cc1,"inconclusive: 23.1 µM [activator, single point]",–
Cc1ccc2c(c1)c1ccc3c(c1n2C)C(=O)C=CC3=O,–,inactive: -27.5%
COc1cccc(-c2nc(-c3ccccc3)[nH]c(=O)c2C#N)c1,"inconclusive: 20.6 µM [falling, partial curve]",–
CN1C(=O)c2cccc3c(S(=O)(=O)Nc4ccccn4)ccc1c23,"inconclusive: 14.6 µM [falling, partial curve, poor fit]",–
COCCNC(=O)CN(CCc1ccccc1)S(=O)(=O)c1ccc(OC)cc1,–,inactive: -9.26%
Cc1ccc(C(=O)N2CCN(c3nc4ccccc4n3C)CC2)cc1,"inconclusive: 9.2 µM [falling, partial curve, poor fit]",–
COc1ccc(Cl)cc1NC(=O)CN(C)CC(=O)Nc1ccccc1-c1ccccc1,–,inactive: -1.46%
CCOC(=O)C1CCCN(c2nc3c(S(=O)(=O)c4ccc(C)c(C)c4)nnn3c3ccc(Cl)cc23)C1 (centres undefined),–,inactive: 18%
Cc1ccc(-c2noc(CN(C(=O)C(c3ccccc3)c3ccccc3)C(C)C)n2)cc1,"inconclusive: 29.1 µM [falling, single point]",–
Cc1ccc(Cl)cc1N1CCN(c2ncnc3onc(C)c23)CC1,active: 20.6 µM,–
CCOC(=O)c1c(C)nc2sc(C(=O)Nc3ccc(OC)cc3)c(N)c2c1-c1ccc(OC)cc1,–,inactive: -5.89%
Cc1ccc(-n2ncc3c2CCCC3NC(=O)c2cnccn2)cc1C (centres undefined),active: 20.6 µM,–
CCOC(=O)c1c(SCC(=O)Nc2nccs2)nc(C)c(C)c1C,"inconclusive: 10.3 µM [activator, partial curve]",–
CC(=O)Nc1ccc(Nc2c3ccccc3nc3ccccc23)cc1,active: 5.8 µM,–
CCN(CC)S(=O)(=O)c1ccc(Cl)c(C(=O)N2CCc3ccccc32)c1,"inconclusive: 25.9 µM [falling, single point]",–
O=C(COC(=O)CCC(=O)c1ccc(F)cc1)Nc1ccc(Cl)cn1,–,inactive: 10.2%
c1coc(CNc2ncnc3c2[nH]c2ccccc23)c1,active: 16.4 µM,–
COc1ccc(S(=O)(=O)Nc2ccc(F)c(Cl)c2)cc1OC,"inconclusive: 2.31 µM [falling, partial curve]",–
Cc1nc(SCC(=O)Nc2ccc(OCc3ccccc3)cc2)n[nH]1,"inconclusive: 5.8 µM [activator, full curve, poor fit]",–
CC(=O)NCCC1CCN(C(=O)c2cc(COc3ccc(C)nc3)on2)CC1,"inconclusive: 23.1 µM [falling, single point]",–
O=c1c2ccccc2nc2n1CCCN2,–,inactive: 5.87%

# Among those listed so far, these contain a thiophene ring, fused or not.
SMILES,Potency,"activity change, negative = inhibition"
CCSC1=C(C#N)C(c2ccccc2Cl)C(C(=O)c2cccs2)C(O)(C(F)(F)F)N1 (centres undefined),"inconclusive: 29.1 µM [falling, single point]",–
CCOC(=O)c1c(C)nc2sc(C(=O)Nc3ccc(OC)cc3)c(N)c2c1-c1ccc(OC)cc1,–,inactive: -5.89%

# The list goes on.

SMILES,Potency,"activity change, negative = inhibition"
O=C(CN1C(=O)CC(c2ccco2)Sc2ccccc21)Nc1cccc(C(F)(F)F)c1 (centres undefined),"inconclusive: 20.6 µM [falling, single point]",–
C/C(=N\NC(=O)CC#N)c1ccc(Oc2ccccc2)cc1,"inconclusive: 6.51 µM [falling, full curve, poor fit]",–
Cc1ccccc1CNC(=O)C1CCCN(c2nnc(C)c3c(C)n(-c4ccccc4)nc23)C1 (centres undefined),"inconclusive: 18.4 µM [falling, single point]",–
CCn1cc(C(=O)NCc2ccc3c(c2)OCO3)c(=O)c2cc(S(=O)(=O)N(C)C)ccc21,–,inactive: 2.29%
OCCCN=c1cc(-c2ccccc2)oc2ccc(Cl)cc12,"inconclusive: 8.2 µM [falling, single point]",–
COc1cc(NS(=O)(=O)c2ccc(N/C=C(\C#N)c3nc4cc(Cl)ccc4o3)cc2)nc(OC)n1,"inconclusive: 7.31 µM [falling, partial curve, poor fit]",–
O=C(Nc1nc2ccccc2[nH]1)c1ccccc1OC(F)F,"inconclusive: 0.58 µM [activator, full curve]",–
O=C1C=CC2C3C(=O)N(c4ccccc4)C(=O)C3C1N2Cc1ccccc1 (centres undefined),–,inactive: 13.1%
Cc1ccc(S(=O)(=O)Cc2cc(-c3ccc(Cl)cc3)no2)cc1,"inconclusive: 14.6 µM [falling, partial curve, poor fit]",–
CC(=O)Oc1ccc(C(=O)O)cc1OC(C)=O,–,inactive: -8.05%
COc1cc(C(=O)NCc2ccc(C)cc2)ccc1OC(F)F,"inconclusive: 20.6 µM [falling, partial curve]",–
N#Cc1ccccc1S(=O)(=O)N1CCN(S(=O)(=O)c2ccc3c(c2)OCCO3)CC1,–,inactive: 17.5%
CC(C)(C)c1ccc(OCC(=O)NNC(=S)NC(=O)c2ccco2)c(Br)c1,"inconclusive: 18.4 µM [falling, partial curve]",–
CCc1ccc(NC(=O)c2sc3nc(C)nc(N4CCN(c5ccccn5)CC4)c3c2C)cc1,"inconclusive: 0.291 µM [activator, full curve, poor fit]",–
O=C(NCCc1ccccc1)C(=O)Nc1nccs1,"inconclusive: 7.31 µM [activator, partial curve, poor fit]",–
Brc1ccc(-c2cn3c(n2)SCC3)cc1,"inconclusive: 1.03 µM [activator, full curve]",–
CC(=O)NC(NC(=S)Nc1ccc(N=Nc2ccccc2)cc1)C(Cl)(Cl)Cl (centres undefined),"inconclusive: 16.4 µM [falling, single point]",–
Cc1cccc(N2C(=O)CN(Cc3sccc3C)C2=S)c1,"inconclusive: 23.1 µM [falling, partial curve, poor fit]",–
O=S(=O)(c1ccc(C2CCCCC2)cc1)N1CCN(c2ncccn2)CC1,"inconclusive: 1.46 µM [falling, partial curve, poor fit]",–
Cc1ccccc1CNC(=O)c1ccc(NC(=O)N2CCCCc3ccccc32)cc1,"inconclusive: 29.1 µM [activator, single point]",–
Cc1c(CN(C)C(=O)c2cc(-c3ccccc3)nc3ccc(Br)cc23)cnn1C,active: 9.2 µM,–
Nc1ccccc1-c1ccc(Cl)cc1,–,inactive: -0.311%
Cc1ccc(NS(=O)(=O)c2ccccc2F)cc1S(=O)(=O)N1CCCCC1,"inconclusive: 29.1 µM [falling, single point]",–
